The source of these data is PubChem BioAssay AID493014 (National Center for Advancing Translational Sciences (NCATS), 2011).

The other results are listed elsewhere or left out. The main result of the screen is listed elsewhere. These columns were measured beside it and carry no call. The list favours compounds with an active or inconclusive main result. Words in brackets tell the shape of the fitted curve; partial curves, single points and poor fits give uncertain potencies.

A short description of this experiment: qHTS Assay to Find Inhibitors of Chronic Active B-Cell Receptor Signaling. The following applies: ABC-DLBCL IkBa-CBG/CBR reporter, luminescence ratio (green luciferase fused to IkBa over red control in TMD8 lymphoma cells), 4 h; measured here: CBR red luminescence, cell number. A digest of the protocol: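 Cell line TMD8 (human ABC DLBCL), stably expressing tet-inducible CBG68-IkBa fusion and CBR; IMDM/0.5% FBS; cpd up to 46 uM; dox induction, 4 h, 37C/5% CO2; dual luminescence; green/red ratio; MG132 control.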
On the technique in general: In qHTS, concentration-response curves come from the screen itself.
Regarding `O=C1CC(N2CCSCC2)C(=O)N1CCc1ccccc1` (stereo not drawn), the AC50 (as a rule, the concentration at which the activity in the assay is half-maximal) is 6.51 µM [rising, single point]. On to `CCOC(=O)C1CCN(C(=O)/C=C/c2ccc3c(c2)OCO3)CC1`, for which the AC50 is 1.41 µM [falling, full curve]. With `CC1C(=O)N(Cc2ccccc2F)c2ccccc2N1C(=O)c1c(F)cccc1F` (stereo not drawn), the AC50 is 35.5 µM [falling, single point]. Turning to `Cc1cc(SCC(=O)Nc2ccc(O)cc2)n2ncc(-c3ccccc3)c2n1`, the half-maximal activity concentration (AC50) is 5.62 µM [rising, single point]. `Cc1nc2nc(-c3ccccc3)[nH]n2c(=O)c1C`: the half-maximal activity concentration (AC50) is 9.2 µM [falling, partial curve, poor fit]. Consider `CC(C)N(C(=O)Cn1cc(S(=O)(=O)CC(=O)NCc2ccccc2)c2ccccc21)C(C)C`, for which the half-maximal activity concentration (AC50) is 0.794 µM [rising, partial curve]. With `O=C(Nc1ccncc1)Nc1ccncc1`, the AC50 was 17.8 µM [falling, single point]. With `CCOc1ccc(/C=C/C(=O)N(CC)CC(=O)NCc2cccs2)cc1OC`, the half-maximal activity concentration (AC50) is 29.1 µM [rising, single point]. As to `Cc1ccc(C(=O)N2C(=O)c3cccc(N)c3C2=O)o1`, the half-maximal activity concentration (AC50) was 15.8 µM [falling, partial curve]. `O=[N+]([O-])c1cccc(-c2cn(-c3ccccc3)c(=S)[nH]2)c1`: the AC50 is 3.55 µM [rising, full curve, poor fit]. With `COc1ccc(NC(=O)CCn2c(-c3ccc(F)cc3)cc(C(C)=O)c2C)c(OC)c1`, the half-maximal activity concentration (AC50) was 3.55 µM [rising, full curve, poor fit].

For the molecule `CCCNc1ncnc2c1c(-c1ccccc1)cn2-c1ccc(OCC)cc1`, the AC50 was 2.82 µM [rising, partial curve, poor fit].

With `C/C(=N\NC(=O)c1ccc2c(c1)OCO2)c1cccnc1`, the AC50 is 3.98 µM [falling, full curve, poor fit]. On to `COC(=O)c1ccccc1NC(=O)C1CC(=O)N(c2ccccc2)C1` (stereo not drawn), for which the half-maximal activity concentration (AC50) is 2.06 µM [rising, partial curve, poor fit]. To `O=C(NCCCO)/C(=C\c1cn(-c2ccccc2)nc1-c1cccnc1)NC(=O)c1ccccc1` belongs 7.31 µM [rising, partial curve, poor fit]; to `O=C(c1cnn(-c2ccccc2)c1)c1cc(F)ccc1O`, 1.41 µM [rising, partial curve]; to `O=C(O)CC1(CC(=O)Nc2ccc(Oc3cccc(C(F)(F)F)c3)nc2)CCCC1`, 35.5 µM [falling, single point]. Regarding `O=S(=O)(Nc1ccc(O)c2ccccc12)c1ccc(Br)cc1`, the half-maximal activity concentration (AC50) is 35.5 µM [falling, single point].
